Measured data: PubChem BioAssay AID602196 (INSERM, 2012)
This is one part, drawn at random, of about 23,000 deposited reagents. Of all reagents, 455 (2%) were called active. 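Active includes both protection and sensitisation; some change values fall well beyond the stated -50 to +50 range.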 Not all columns of the deposit are shown. No sequences are given here. Not stated in the record: the amount of reagent.

Aim: 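Knock-downs that protect lung cancer cells from cisplatin or sensitise them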
Cells: human A549 lung cancer cells
Reagent: siRNA pair against human genes
Time to read-out: 48 h transfection before cisplatin; time from cisplatin to read-out not stated
Challenge: cisplatin at a dose killing half of control-siRNA cells; exact dose and duration not given
Read-out: 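Shift in cisplatin death relative to control siRNA, from -50 (all cells die) to +50 (no cells die); siRNAs harmful on their own scored 0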
Direction: two-siRNA summed score (-2 to +2): higher = both siRNAs protect from cisplatin killing; -2 means both sensitise
Active means: 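Each siRNA scores 0 if harmful alone by LDH or WST-1, otherwise +1 if it reduces and -1 if it increases cisplatin killing; a gene is active when both siRNAs agree (sum +2 or -2)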
Meaning of the calls: active = both siRNAs shift cisplatin killing the same way; inactive = no consistent shift, or siRNA harmful alone

For BHLHE22 (basic helix-loop-helix family member e22), how do the results read?
two-siRNA summed score (-2 to +2): -1; activity call: inactive

With NHS (NHS actin remodeling regulator), what was measured?
two-siRNA summed score (-2 to +2): 0; activity call: inactive

For PAAF1 (proteasomal ATPase associated factor 1), how do the results read?
two-siRNA summed score (-2 to +2): 0; activity call: inactive

What is on record for LINC00298 (long intergenic non-protein coding RNA 298)?
two-siRNA summed score (-2 to +2): 1; activity call: inactive

Which result is listed for OTC (ornithine transcarbamylase)?
two-siRNA summed score (-2 to +2): 1; activity call: inactive

For LOC391847, what does the deposit list?
two-siRNA summed score (-2 to +2): 0; activity call: inactive

With LOC440683 (retired record), what was measured?
two-siRNA summed score (-2 to +2): 1; activity call: inactive

In a second layout: 2 of the entries above.
gene	two-siRNA summed score (-2 to +2)	activity call
OTC (ornithine transcarbamylase)	1	inactive
LOC391847	0	inactive

The list goes on:
With JMJD6, how do the results read?
two-siRNA summed score (-2 to +2): -1; activity call: inactive

How did the screen score SMARCB1 (SWI/SNF related BAF chromatin remodeling complex subunit B1)?
two-siRNA summed score (-2 to +2): 1; activity call: inactive

With LOC440222, how do the results read?
two-siRNA summed score (-2 to +2): 2; activity call: active

For GPX6 (glutathione peroxidase 6), what does the deposit list?
two-siRNA summed score (-2 to +2): 0; activity call: inactive

With PRAC2 (PRAC2 small nuclear protein), how do the results read?
two-siRNA summed score (-2 to +2): 2; activity call: active
